Experimental findings from PMC6949295 (2020) are described below.

Protein sequences, listed by entry. Tags and fused reporters are not part of them.
UniProt Q9UPT5: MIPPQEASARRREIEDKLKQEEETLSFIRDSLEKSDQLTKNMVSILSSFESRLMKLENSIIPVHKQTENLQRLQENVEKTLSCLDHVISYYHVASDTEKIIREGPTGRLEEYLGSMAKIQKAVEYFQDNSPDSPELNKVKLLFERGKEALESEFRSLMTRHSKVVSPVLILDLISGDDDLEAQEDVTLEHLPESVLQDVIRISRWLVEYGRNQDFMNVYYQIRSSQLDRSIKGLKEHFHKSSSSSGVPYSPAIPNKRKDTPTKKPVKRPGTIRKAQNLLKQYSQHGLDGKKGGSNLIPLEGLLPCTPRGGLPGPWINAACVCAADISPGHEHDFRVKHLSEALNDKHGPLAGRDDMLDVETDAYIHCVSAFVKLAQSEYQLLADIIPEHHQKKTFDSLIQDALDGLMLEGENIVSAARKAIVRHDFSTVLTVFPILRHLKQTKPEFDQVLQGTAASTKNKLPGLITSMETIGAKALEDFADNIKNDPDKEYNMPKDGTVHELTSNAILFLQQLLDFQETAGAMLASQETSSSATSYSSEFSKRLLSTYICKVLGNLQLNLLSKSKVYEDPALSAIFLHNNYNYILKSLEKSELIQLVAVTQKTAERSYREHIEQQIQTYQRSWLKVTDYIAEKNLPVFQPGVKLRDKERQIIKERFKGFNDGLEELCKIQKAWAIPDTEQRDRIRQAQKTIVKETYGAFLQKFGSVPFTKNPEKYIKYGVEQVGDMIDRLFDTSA

In the test the target is T1, HA-ULK1 (UniProt O75385).
T1 sequence: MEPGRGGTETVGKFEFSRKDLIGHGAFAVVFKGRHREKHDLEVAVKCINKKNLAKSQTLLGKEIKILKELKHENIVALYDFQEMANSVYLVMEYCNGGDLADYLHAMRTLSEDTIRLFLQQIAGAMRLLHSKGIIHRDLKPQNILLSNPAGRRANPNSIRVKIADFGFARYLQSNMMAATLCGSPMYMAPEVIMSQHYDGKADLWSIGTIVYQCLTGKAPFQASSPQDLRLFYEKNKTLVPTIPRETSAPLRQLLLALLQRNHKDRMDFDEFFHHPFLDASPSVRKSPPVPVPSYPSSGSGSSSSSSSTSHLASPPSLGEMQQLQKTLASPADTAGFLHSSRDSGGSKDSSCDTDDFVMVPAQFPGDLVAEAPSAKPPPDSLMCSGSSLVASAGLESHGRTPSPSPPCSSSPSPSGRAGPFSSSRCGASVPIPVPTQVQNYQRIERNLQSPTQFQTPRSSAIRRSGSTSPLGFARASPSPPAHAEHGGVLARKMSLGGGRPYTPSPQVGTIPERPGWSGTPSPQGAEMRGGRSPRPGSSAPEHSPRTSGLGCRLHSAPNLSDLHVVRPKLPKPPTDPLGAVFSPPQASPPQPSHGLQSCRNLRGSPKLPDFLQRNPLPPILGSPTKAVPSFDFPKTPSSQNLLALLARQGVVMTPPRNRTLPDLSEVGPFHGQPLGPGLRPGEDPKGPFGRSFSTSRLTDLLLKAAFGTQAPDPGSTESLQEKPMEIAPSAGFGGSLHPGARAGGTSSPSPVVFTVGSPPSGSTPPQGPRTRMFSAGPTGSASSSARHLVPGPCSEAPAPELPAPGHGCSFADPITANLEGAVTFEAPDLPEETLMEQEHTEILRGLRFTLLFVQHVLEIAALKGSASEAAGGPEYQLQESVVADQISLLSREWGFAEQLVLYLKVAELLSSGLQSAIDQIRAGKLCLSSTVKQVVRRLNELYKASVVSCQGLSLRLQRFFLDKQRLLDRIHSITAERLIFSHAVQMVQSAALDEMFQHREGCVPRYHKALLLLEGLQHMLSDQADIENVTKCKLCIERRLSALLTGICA
In words: affinity purification with mass spectrometry; immunoprecipitation from cells expressing HA-tagged ULK1 against the vector control; co-precipitated proteins analysed by mass spectrometry; cell line not stated.

These are yes or no findings as the source states them, for the method shown. Binding seen in cells or lysates may run through a third protein. These calls come from enrichment with a bait or labelling near it, and not all partners need be listed. Sequences can lack the tags named with a protein.

Regarding “endogenous Exo70 (from UniProt Q9UPT5 1-735)”, the binding entry is listed as “binds”.
